Laboratory results: the supplement of paper PMC10331698
± gives the standard deviation of the averaged measurements. Most values lie at the level of the controls, where differences are scatter.

Experiments:
Assay in all cases: level (log10 ratio to DMSO vehicle control); higher = higher biomarker level / cell amount than vehicle control
[1] = compound: C=C(C)C(=O)OCC(F)(F)C(F)(F)C(F)(F)C(F)(F)C(F)(F)C(F)(F)C(F)(F)F; conditions: in DMSO
Description: (§1)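 BioMAP Diversity Plus panel of 12 human primary cell co-culture systems (3C, 4H, LPS, SAg, BT, BF4T, BE3C, CASM3C, HDF3CGF, KF3CT, MyoF, Mphg). Compounds were added 1 h before stimulation and left for 24 h (MyoF 48 h; BT 72 h for soluble read-outs or 6 d for IgG). Biomarkers were read by ELISA, cytotoxicity by SRB, PBMC viability and proliferation by Alamar Blue. Each well value was divided by the mean of 8 DMSO control wells on the same plate and log10 transformed; duplicate blinded samples were tested at 4 concentrations.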

[2] = compound: C=CC(=O)OCC(F)(F)C(F)(F)C(F)(F)C(F)(F)C(F)(F)C(F)(F)C(F)(F)F [1H,1H-Perfluorooctyl acrylate]; conditions: 2200 nM; in DMSO
Description: as §1

[3] = compound: C=CC(F)(F)C(F)(F)C(F)(F)C(F)(F)C(F)(F)C(F)(F)C(F)(F)C(F)(F)C=C [1,8-Divinylperfluorooctane]; conditions: in DMSO
Description: as §1

[4] = compound: COC(=O)C(F)(F)C(F)(F)OC(F)(C(F)(F)F)C(F)(F)OC(F)=C(F)F [Methyl perfluoro(3-(1-ethenyloxypropan-2-yloxy)propanoate)]; conditions: in DMSO
Description: as §1

[5] = compound: CO[Si](C)(CCC(F)(F)C(F)(F)C(F)(F)C(F)(F)C(F)(F)C(F)(F)F)OC [Dimethoxymethyl((perfluorohexyl)ethyl)silane]; conditions: in DMSO
Description: as §1

[6] = compound: FC(F)(F)C(F)(F)C(F)(F)CC1CO1 [1H,1H-Heptafluorobutyl epoxide]; conditions: 2200 nM; in DMSO
Description: as §1

[7] = compound: FC(F)(F)C(F)(F)C(F)(F)CI [Heptafluorobutyl iodide]; conditions: 2200 nM; in DMSO
Description: as §1

[8] = compound: NC(=O)C(F)(F)C(F)(F)C(F)(F)C(F)F; conditions: in DMSO
Description: as §1

[9] = compound: NC(=O)C(F)(F)C(F)(F)F [Pentafluoropropionamide]; conditions: 2200 nM; in DMSO
Description: as §1

[10] = compound: NS(=O)(=O)C(F)(F)C(F)(F)C(F)(F)C(F)(F)C(F)(F)C(F)(F)C(F)(F)C(F)(F)F [Perfluorooctanesulfonamide]; conditions: in DMSO
Description: as §1

[11] = compound: O=C(O)C(F)(F)C(F)(F)C(F)F [4H-Perfluorobutanoic acid]; conditions: in DMSO
Description: as §1

[12] = compound: O=P(O)(O)CCC(F)(F)C(F)(F)C(F)(F)C(F)(F)C(F)(F)C(F)(F)F [2-(Perfluorohexyl)ethylphosphonic acid]; conditions: 2200 nM; in DMSO
Description: as §1

[13] = compound: O=S(=O)(F)C(F)(F)C(F)(F)C(F)(F)C(F)(F)C(F)(F)C(F)(F)C(F)(F)C(F)(F)F [Perfluorooctanesulfonyl fluoride]; conditions: 2200 nM; in DMSO
Description: as §1

[14] = compound: O=S(=O)(O)C(F)(F)C(F)(F)C(F)(F)C(F)(F)C(F)(F)C(F)(F)C(F)(F)C(F)(F)F [Perfluorooctanesulfonic acid]; conditions: 2200 nM; in DMSO
Description: as §1

[15] = compound: O=S(=O)(O)C(F)(F)C(F)(F)C(F)(F)C(F)(F)C(F)(F)C(F)(F)C(F)(F)C(F)(F)F [Potassium perfluorooctanesulfonate]; conditions: 2200 nM; in DMSO
Description: as §1

[16] = compound: O=S(=O)(OCC(F)(F)F)C(F)(F)C(F)(F)C(F)(F)C(F)(F)F [2,2,2-Trifluoroethyl perfluorobutanesulfonate]; conditions: 2200 nM; in DMSO
Description: as §1

[17] = compound: OCC(F)(F)C(F)(F)C(F)(F)C(F)(F)C(F)(F)C(F)F [1H,1H,7H-Dodecafluoro-1-heptanol]; conditions: 2200 nM; in DMSO
Description: as §1

[18] = compound: OCCCCC(F)(F)C(F)(F)C(F)(F)C(F)(F)F [4:4 Fluorotelomer alcohol]; conditions: 2200 nM; in DMSO
Description: as §1

Test System | level (log10) ([1]; 740 nM) | level (log10) ([1]; 2200 nM) | level (log10) [2] | level (log10) ([3]; 740 nM) | level (log10) ([3]; 2200 nM) | level (log10) ([4]; 740 nM) | level (log10) ([4]; 2200 nM) | level (log10) ([5]; 740 nM) | level (log10) ([5]; 2200 nM) | level (log10) [6] | level (log10) [7] | level (log10) ([8]; 2200 nM) | level (log10) ([8]; 6700 nM) | level (log10) ([8]; 20000 nM) | level (log10) ([8]; 60000 nM) | level (log10) [9] | level (log10) ([10]; 2200 nM) | level (log10) ([10]; 6700 nM) | level (log10) ([10]; 20000 nM) | level (log10) ([11]; 2200 nM) | level (log10) ([11]; 6700 nM) | level (log10) ([11]; 20000 nM) | level (log10) ([11]; 60000 nM) | level (log10) [12] | level (log10) [13] | level (log10) [14] | level (log10) [15] | level (log10) [16] | level (log10) [17] | level (log10) [18]
3C:Proliferation | -0.0615 ± 0.044 | -0.011 ± 0.052 | -0.0005 ± 0.059 | -0.0405 ± 0.087 | -0.062 ± 0.033 | -0.044 ± 0.014 | -0.03 ± 0.016 | -0.0315 ± 0.061 | -0.0245 ± 0.039 | -0.0485 ± 0.019 | -0.0085 ± 0.029 | 0 ± 0.083 | -0.0385 ± 0.049 | -0.038 ± 0.061 | -0.03 ± 0.031 | -0.023 ± 0.038 | -0.0515 ± 0.016 | -0.039 ± 0.0099 | -0.208 ± 0.02 | -0.032 ± 0.078 | -0.023 ± 0.02 | -0.03 ± 0.041 | 0.013 ± 0.065 | -0.0505 ± 0.047 | 0.022 ± 0.052 | 0.015 ± 0.082 | -0.0745 ± 0.067 | -0.0165 ± 0.066 | -0.029 ± 0.064 | -0.029 ± 0.057
HDF3CGF:TIMP-2 | 0.0095 ± 0.046 | 0.0015 ± 0.00071 | 0.0025 ± 0.016 | -0.0075 ± 0.025 | -0.0215 ± 0.0078 | -0.008 ± 0.023 | -0.0245 ± 0.022 | -0.0455 ± 0.066 | -0.051 ± 0.068 | -0.0395 ± 0.098 | 0.0005 ± 0.026 | -0.0165 ± 0.039 | 0.015 ± 0.025 | 0.027 ± 0.033 | 0.003 ± 0.0028 | -0.001 ± 0.0014 | -0.0395 ± 0.00071 | -0.0545 ± 0.0021 | -0.102 ± 0.044 | -0.019 ± 0.0085 | -0.0295 ± 0.066 | -0.01 ± 0.044 | -0.003 ± 0.059 | -0.0485 ± 0.069 | 0.0045 ± 0.015 | -0.046 ± 0.0028 | -0.0235 ± 0.029 | -0.023 ± 0.031 | -0.0055 ± 0.015 | 0.0115 ± 0.032
CASM3C:CD141/Thrombomodulin | -0.0345 ± 0.016 | -0.0005 ± 0.0035 | 0.009 ± 0.02 | -0.0185 ± 0.036 | -0.025 ± 0.035 | -0.0005 ± 0.035 | 0.0205 ± 0.0021 | -0.019 ± 0.016 | 0.008 ± 0.014 | -0.022 ± 0.024 | 0.009 ± 0.024 | -0.0205 ± 0.005 | -0.008 ± 0.0042 | 0.0085 ± 0.025 | 0.0085 ± 0.0092 | -0.0125 ± 0.023 | -0.031 ± 0.0057 | 0 ± 0.0085 | 0.0505 ± 0.0078 | 0.0325 ± 0.016 | -0.0005 ± 0.016 | 0 ± 0.081 | -0.0145 ± 0.028 | 0.0075 ± 0.029 | 0.0105 ± 0.015 | -0.0015 ± 0.026 | 0.0315 ± 0.064 | -0.0095 ± 0.036 | 0.027 ± 0.0085 | 0.02 ± 0.033
KF3CT:TIMP-2 | 0.0325 ± 0.056 | 0.008 ± 0.03 | -0.0205 ± 0.021 | -0.019 ± 0.051 | -0.029 ± 0.041 | 0 ± 0.0028 | 0 ± 0.0028 | -0.019 ± 0.031 | 0.0025 ± 0.023 | 0.015 ± 0.034 | -0.0015 ± 0.00071 | 0.0085 ± 0.026 | -0.006 ± 0.0057 | -0.005 ± 0.013 | 0.0015 ± 0.019 | 0.003 ± 0.041 | -0.013 ± 0.0071 | -0.0275 ± 0.012 | -0.06 ± 0.021 | 0.003 ± 0.028 | 0.002 ± 0.031 | -0.011 ± 0.016 | 0.004 ± 0.0099 | -0.0105 ± 0.042 | 0.0015 ± 0.015 | -0.0065 ± 0.0064 | -0.011 ± 0.0042 | -0.0325 ± 0.011 | 0.0095 ± 0.021 | -0.016 ± 0.011
3C:CD141/Thrombomodulin | -0.03 ± 0.0042 | -0.0185 ± 0.005 | -0.008 ± 0.044 | -0.016 ± 0.037 | -0.027 ± 0.0057 | -0.0285 ± 0.035 | -0.033 ± 0.025 | -0.006 ± 0.03 | -0.0195 ± 0.005 | -0.0275 ± 0.043 | 0.0105 ± 0.0078 | -0.014 ± 0.03 | -0.0285 ± 0.074 | 0 ± 0.03 | -0.0075 ± 0.026 | -0.019 ± 0.021 | -0.0035 ± 0.05 | 0.018 ± 0.0099 | 0.107 ± 0.0014 | -0.0215 ± 0.011 | -0.0285 ± 0.0078 | -0.008 ± 0.013 | 0.0035 ± 0.0035 | 0.022 ± 0.0028 | -0.034 ± 0.014 | 0.005 ± 0.02 | 0.0225 ± 0.013 | -0.027 ± 0.02 | -0.0005 ± 0.0035 | -0.004 ± 0.065
BT:sIL-6 | -0.005 ± 0.0057 | 0.0285 ± 0.05 | -0.0065 ± 0.011 | 0.0305 ± 0.022 | 0.072 ± 0.057 | -0.001 ± 0.02 | 0.0315 ± 0.015 | 0.055 ± 0.014 | -0.007 ± 0.011 | -0.0095 ± 0.00071 | -0.0075 ± 0.016 | -0.0365 ± 0.016 | 0.0315 ± 0.074 | -0.0335 ± 0.023 | -0.0795 ± 0.11 | 0.0135 ± 0.015 | -0.021 ± 0.018 | -0.0455 ± 0.023 | -0.0485 ± 0.026 | -0.0385 ± 0.052 | -0.008 | -0.046 ± 0.031 | -0.0915 ± 0.026 | 0.031 ± 0.017 | -0.0555 ± 0.056 | 0.013 ± 0.0028 | 0.0135 ± 0.04 | 0.0565 ± 0.0064 | 0.0055 ± 0.12 | -0.015 ± 0.064
LPS:CCL2/MCP-1 | -0.0035 ± 0.035 | 0.0005 ± 0.019 | 0.0085 ± 0.037 | 0.014 ± 0.011 | 0.0025 ± 0.011 | -0.008 ± 0.04 | 0.0035 ± 0.0078 | 0.003 ± 0.014 | -0.018 ± 0.0085 | -0.012 ± 0.037 | 0.022 ± 0.025 | 0.027 ± 0.071 | 0.009 ± 0.045 | 0.005 ± 0.042 | 0.03 ± 0.013 | -0.012 ± 0.034 | 0.021 ± 0.03 | -0.0035 ± 0.013 | 0.0165 ± 0.0021 | 0.0115 ± 0.023 | -0.0195 ± 0.0021 | -0.007 ± 0.0042 | 0.017 ± 0.054 | 0.0195 ± 0.019 | 0.0035 ± 0.016 | 0.006 ± 0.03 | 0.0125 ± 0.025 | -0.0345 ± 0.0035 | 0.004 ± 0.023 | -0.0095 ± 0.016
